These are yes or no findings as the source states them, for the method shown. In cells and extracts the contact can be indirect. Some binding calls cover weakened binding; strength is not graded here. For part of these data: Sequences can lack the tags named with a protein.
How the values were obtained:
GST–FKBP12.6 = GST–FKBP12.6 (UniProt P68106); test: pull-down; purified GST-fusion protein (1 µM) captured on glutathione Sepharose, incubated with CHAPS-solubilised pig cardiac SR; RyR2 detected by immunoblot with Ab1093; residual micromolar Ca2+; only the target purified
[1] = target: T1, HA–CSQ2 (hemagglutinin-tagged human calsequestrin 2) (human) (UniProt O14958); test: co-IP; competition: HA–CSQ2 immunoprecipitated with anti-HA from lysates of HEK293 cells co-expressing RyR2, in the presence of 1 µM GST–LL1 or GST alone
T1 sequence: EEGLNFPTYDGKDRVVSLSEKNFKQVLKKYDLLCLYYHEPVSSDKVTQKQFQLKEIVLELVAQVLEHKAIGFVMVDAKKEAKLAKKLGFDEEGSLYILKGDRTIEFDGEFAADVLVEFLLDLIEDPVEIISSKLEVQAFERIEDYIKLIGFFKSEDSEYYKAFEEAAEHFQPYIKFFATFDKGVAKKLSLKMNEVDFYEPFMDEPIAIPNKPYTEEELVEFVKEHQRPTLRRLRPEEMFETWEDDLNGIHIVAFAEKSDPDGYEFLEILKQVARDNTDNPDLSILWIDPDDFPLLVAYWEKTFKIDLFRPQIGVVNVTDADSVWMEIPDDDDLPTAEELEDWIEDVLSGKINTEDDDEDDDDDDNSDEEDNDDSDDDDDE

By UniProt entry, the sequences of proteins in these tests, tags left out.
UniProt P68106: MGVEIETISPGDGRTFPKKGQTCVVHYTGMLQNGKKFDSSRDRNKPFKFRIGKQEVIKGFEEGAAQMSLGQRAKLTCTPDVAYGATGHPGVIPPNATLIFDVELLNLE
UniProt Q92736: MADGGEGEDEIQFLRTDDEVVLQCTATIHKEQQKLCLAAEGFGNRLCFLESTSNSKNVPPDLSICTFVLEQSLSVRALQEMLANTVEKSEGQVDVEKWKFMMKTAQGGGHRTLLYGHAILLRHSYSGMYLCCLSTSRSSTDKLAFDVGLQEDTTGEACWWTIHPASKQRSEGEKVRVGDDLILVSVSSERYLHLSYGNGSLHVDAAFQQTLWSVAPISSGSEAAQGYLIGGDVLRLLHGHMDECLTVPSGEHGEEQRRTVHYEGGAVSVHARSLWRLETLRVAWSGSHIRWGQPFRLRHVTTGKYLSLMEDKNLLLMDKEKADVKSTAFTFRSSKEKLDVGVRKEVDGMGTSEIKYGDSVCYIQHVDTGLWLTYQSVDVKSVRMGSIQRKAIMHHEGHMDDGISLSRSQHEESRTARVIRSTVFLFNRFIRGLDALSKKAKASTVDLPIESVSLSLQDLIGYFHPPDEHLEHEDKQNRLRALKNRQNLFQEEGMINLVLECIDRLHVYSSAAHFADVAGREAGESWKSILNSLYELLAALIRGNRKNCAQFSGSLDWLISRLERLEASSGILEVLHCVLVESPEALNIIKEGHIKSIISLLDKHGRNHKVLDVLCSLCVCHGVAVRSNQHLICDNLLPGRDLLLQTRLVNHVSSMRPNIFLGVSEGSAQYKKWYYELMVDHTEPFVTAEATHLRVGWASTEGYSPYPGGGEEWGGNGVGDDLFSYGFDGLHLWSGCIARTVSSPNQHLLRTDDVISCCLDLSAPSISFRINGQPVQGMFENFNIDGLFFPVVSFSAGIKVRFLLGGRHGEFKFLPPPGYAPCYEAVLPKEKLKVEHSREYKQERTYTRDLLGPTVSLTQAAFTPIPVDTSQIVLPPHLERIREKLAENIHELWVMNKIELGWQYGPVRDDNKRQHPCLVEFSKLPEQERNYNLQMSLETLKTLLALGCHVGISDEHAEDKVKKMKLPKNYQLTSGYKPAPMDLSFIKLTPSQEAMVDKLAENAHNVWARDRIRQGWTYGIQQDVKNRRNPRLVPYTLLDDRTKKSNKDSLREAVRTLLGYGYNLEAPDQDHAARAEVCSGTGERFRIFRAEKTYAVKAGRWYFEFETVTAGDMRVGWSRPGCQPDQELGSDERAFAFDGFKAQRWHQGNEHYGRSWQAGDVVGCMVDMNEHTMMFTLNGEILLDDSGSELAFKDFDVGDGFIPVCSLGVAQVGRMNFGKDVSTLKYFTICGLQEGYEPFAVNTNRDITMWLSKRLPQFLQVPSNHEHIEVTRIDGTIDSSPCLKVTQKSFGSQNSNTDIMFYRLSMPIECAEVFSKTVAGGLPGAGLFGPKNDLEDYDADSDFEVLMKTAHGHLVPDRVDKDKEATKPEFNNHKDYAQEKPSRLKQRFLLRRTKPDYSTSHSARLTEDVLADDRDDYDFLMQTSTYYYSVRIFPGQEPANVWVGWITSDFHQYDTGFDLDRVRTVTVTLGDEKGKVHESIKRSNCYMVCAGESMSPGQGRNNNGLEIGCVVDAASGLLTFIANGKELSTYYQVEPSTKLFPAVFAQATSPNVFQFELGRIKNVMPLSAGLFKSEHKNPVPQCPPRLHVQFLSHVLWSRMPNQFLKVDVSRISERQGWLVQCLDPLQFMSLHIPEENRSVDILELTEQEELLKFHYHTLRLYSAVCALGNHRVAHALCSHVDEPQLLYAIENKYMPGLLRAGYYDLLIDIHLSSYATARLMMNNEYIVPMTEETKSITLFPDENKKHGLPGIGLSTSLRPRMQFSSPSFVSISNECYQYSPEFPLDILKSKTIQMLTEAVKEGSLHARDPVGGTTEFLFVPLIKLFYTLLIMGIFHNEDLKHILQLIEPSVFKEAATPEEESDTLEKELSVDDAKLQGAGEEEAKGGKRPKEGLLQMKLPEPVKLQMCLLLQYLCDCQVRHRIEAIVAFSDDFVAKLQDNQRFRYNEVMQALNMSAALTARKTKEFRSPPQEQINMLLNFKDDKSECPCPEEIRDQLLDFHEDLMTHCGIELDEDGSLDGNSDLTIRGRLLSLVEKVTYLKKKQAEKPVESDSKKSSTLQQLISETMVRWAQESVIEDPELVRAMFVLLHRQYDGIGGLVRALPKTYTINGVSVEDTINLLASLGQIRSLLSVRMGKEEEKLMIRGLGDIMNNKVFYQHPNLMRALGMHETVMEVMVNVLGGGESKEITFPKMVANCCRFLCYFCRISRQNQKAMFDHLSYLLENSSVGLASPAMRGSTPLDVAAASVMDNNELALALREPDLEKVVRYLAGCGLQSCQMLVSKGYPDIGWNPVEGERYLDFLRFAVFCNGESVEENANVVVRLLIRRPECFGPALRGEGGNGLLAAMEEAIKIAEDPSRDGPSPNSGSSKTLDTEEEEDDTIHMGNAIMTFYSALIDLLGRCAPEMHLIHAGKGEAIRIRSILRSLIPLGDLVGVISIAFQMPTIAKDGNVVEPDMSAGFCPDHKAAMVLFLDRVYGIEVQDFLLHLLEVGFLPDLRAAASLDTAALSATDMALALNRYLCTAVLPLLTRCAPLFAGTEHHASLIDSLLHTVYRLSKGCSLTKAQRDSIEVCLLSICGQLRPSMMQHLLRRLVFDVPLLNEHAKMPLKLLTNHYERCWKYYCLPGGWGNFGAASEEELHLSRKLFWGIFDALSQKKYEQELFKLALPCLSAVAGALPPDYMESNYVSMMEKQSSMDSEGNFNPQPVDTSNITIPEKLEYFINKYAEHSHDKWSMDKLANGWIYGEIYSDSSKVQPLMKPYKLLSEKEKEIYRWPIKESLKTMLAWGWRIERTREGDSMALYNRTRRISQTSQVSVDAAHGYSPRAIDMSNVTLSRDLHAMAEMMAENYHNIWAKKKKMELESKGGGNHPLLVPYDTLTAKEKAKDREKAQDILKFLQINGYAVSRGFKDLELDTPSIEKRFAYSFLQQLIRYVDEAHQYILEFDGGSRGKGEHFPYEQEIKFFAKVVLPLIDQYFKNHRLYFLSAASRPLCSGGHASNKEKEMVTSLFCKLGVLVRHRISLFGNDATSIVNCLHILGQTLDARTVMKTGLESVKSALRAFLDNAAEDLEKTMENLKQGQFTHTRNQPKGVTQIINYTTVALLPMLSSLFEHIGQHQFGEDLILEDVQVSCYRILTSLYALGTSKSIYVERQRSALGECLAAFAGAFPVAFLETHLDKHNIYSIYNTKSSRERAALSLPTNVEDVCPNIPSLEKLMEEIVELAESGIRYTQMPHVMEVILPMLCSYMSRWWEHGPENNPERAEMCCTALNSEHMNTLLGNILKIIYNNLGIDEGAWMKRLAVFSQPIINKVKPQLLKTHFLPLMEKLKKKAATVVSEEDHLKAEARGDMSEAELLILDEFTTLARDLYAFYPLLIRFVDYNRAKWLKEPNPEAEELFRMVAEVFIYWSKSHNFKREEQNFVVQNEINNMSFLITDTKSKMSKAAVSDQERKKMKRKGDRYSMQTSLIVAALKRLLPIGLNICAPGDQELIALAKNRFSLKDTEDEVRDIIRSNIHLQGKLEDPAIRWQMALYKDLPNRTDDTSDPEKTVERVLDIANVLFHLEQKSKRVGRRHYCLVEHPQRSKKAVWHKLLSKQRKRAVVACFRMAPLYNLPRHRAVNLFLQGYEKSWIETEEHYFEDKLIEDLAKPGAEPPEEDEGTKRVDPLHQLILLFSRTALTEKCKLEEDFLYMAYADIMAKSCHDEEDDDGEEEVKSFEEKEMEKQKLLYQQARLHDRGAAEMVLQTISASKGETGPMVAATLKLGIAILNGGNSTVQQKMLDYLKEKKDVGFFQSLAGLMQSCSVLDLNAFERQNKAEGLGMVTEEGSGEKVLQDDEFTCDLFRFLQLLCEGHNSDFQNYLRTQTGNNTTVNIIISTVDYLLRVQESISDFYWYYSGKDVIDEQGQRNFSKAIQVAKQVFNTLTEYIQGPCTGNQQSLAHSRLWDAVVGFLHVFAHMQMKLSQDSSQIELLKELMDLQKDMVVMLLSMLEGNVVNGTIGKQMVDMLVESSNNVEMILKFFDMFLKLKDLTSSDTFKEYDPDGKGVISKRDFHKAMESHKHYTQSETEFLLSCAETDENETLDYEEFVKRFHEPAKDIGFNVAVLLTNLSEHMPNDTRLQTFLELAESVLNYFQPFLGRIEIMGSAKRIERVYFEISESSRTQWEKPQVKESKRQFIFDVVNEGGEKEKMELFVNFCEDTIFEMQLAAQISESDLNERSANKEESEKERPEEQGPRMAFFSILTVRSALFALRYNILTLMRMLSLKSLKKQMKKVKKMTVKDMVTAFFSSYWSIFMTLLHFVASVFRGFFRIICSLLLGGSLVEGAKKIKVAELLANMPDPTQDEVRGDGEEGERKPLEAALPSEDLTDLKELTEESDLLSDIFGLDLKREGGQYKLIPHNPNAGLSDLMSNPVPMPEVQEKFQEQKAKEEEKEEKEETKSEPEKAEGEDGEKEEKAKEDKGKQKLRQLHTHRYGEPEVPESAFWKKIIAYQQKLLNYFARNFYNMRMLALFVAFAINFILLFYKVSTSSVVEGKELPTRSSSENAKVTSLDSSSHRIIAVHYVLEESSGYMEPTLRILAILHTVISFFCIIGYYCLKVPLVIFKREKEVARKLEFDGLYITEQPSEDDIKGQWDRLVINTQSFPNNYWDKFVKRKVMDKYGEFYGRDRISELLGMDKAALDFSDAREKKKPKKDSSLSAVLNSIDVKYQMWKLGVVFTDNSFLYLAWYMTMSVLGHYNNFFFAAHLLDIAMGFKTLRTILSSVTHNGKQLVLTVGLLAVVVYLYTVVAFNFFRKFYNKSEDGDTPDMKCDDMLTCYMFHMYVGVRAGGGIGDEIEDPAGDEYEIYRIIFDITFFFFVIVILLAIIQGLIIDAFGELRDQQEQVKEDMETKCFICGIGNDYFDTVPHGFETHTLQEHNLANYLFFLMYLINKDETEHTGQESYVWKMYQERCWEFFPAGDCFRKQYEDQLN

[2] = target: T1, HA–CSQ2 (hemagglutinin-tagged human calsequestrin 2) (human); test: co-IP; HA–CSQ2 immunoprecipitated with anti-HA from CHAPS-solubilised lysates of co-transfected HEK293 cells; partner detected by immunoblot (Ab1093 or anti-Myc); non-immune rabbit IgG as control; residual micromolar Ca2+

binding (GST–FKBP12.6)	binding [1]	binding [2]	Substance
binds			native RyR2 from pig cardiac SR (from UniProt A0A5G2R1W3 1-4900)
	binds	binds	recombinant human RyR2 expressed in HEK293 cells (from UniProt Q92736 1-4967)

Reference: paper PMC5117208
